# Experimental data as given in the supplement of paper PMC11732987, “Enantioselective OTUD7B fragment discovery through chemoproteomics screening and high-throughput optimisation” (Communications Chemistry, 2025).
# By UniProt entry, the sequences of proteins in these tests, tags left out. Where a name states a change or a piece, a line headed by the entry shows the natural chain unless it says otherwise. Residues count along the entry.
# UniProt O94776: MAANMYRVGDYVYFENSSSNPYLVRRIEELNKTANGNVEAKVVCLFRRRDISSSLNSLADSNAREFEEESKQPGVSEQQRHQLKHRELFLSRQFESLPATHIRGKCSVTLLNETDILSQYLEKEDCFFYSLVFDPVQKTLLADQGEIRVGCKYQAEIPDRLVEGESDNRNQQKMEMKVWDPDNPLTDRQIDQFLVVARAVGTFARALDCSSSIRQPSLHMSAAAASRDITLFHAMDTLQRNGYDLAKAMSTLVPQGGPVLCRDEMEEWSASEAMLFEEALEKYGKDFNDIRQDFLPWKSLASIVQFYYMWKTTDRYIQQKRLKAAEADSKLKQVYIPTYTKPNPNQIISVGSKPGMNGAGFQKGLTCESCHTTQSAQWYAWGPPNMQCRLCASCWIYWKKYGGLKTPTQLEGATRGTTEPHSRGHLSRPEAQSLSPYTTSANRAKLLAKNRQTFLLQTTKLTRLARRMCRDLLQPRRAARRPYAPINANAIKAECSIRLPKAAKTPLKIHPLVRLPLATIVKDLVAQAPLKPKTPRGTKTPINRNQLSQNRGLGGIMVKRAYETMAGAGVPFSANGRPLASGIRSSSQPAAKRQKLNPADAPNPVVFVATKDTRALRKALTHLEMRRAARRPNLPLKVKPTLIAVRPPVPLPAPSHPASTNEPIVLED
# UniProt Q9Y4I1, whole entry, looked up: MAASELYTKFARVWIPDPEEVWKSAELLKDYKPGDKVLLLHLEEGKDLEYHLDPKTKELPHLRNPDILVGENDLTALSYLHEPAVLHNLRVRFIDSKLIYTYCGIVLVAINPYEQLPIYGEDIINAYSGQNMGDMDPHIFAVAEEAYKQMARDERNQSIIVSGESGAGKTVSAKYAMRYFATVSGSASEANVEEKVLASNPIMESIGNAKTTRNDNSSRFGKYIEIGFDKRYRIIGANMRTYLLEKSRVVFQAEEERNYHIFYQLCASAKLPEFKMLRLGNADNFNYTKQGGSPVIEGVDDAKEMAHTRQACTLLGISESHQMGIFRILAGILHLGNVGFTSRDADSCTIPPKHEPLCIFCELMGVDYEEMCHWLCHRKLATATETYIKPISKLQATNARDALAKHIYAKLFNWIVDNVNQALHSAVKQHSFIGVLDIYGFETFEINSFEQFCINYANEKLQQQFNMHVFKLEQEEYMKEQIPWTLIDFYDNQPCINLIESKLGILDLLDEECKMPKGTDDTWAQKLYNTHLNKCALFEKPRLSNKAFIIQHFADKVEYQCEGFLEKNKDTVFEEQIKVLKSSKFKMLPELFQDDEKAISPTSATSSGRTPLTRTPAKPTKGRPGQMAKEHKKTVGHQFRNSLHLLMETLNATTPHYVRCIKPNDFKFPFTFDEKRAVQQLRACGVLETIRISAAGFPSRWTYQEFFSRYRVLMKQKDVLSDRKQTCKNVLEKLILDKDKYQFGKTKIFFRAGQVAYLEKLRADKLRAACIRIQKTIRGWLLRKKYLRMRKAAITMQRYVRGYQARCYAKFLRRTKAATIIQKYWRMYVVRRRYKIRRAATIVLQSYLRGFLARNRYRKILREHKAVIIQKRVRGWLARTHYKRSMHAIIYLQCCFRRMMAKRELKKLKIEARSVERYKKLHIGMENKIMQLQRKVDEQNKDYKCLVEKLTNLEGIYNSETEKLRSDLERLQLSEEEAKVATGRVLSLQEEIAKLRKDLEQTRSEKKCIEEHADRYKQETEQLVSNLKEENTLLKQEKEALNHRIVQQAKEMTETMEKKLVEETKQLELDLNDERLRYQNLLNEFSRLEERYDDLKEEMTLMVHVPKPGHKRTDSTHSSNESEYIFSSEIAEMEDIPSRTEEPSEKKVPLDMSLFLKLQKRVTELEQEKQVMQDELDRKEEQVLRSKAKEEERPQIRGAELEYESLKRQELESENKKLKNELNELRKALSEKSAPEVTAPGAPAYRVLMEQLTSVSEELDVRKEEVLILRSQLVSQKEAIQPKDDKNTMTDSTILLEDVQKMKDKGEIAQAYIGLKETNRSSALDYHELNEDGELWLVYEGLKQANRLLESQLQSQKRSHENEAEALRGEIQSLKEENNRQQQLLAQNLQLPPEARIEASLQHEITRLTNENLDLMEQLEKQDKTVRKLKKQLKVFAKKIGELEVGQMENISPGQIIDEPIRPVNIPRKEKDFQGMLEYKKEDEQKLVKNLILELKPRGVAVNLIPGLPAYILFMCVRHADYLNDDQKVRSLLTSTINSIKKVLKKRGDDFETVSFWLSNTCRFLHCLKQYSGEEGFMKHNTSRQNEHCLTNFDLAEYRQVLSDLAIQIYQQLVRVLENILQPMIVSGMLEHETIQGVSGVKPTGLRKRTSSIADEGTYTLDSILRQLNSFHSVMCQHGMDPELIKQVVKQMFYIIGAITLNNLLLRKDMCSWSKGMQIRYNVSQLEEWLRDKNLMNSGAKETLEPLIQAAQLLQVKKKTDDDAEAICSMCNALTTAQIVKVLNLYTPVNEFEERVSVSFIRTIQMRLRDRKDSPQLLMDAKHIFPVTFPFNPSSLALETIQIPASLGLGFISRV
# UniProt Q15742: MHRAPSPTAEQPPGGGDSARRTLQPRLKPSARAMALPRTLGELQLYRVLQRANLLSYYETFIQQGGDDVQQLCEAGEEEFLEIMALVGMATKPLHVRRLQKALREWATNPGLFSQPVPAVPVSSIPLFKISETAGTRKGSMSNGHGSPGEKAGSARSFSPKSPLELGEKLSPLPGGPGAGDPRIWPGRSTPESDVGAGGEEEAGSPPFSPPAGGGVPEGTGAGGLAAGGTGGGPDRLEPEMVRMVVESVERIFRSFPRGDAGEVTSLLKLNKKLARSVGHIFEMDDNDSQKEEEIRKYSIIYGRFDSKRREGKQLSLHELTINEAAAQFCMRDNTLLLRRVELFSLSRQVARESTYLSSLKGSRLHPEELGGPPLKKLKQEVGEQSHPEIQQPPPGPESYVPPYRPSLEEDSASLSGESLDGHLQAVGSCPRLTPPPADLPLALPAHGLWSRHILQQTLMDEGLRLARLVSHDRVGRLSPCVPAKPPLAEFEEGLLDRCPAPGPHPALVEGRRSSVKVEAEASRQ
# UniProt O75570: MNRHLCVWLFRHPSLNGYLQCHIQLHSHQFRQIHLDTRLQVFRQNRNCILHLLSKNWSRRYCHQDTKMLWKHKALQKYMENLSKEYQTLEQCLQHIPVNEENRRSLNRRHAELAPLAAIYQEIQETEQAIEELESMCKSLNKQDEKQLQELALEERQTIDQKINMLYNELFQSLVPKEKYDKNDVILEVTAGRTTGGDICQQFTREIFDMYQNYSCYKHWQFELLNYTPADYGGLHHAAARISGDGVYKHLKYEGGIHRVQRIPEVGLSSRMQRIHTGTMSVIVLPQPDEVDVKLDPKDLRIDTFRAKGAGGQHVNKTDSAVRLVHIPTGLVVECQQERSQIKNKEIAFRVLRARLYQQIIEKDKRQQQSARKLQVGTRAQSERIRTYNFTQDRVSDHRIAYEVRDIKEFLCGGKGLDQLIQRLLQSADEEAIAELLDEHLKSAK
# UniProt Q13496: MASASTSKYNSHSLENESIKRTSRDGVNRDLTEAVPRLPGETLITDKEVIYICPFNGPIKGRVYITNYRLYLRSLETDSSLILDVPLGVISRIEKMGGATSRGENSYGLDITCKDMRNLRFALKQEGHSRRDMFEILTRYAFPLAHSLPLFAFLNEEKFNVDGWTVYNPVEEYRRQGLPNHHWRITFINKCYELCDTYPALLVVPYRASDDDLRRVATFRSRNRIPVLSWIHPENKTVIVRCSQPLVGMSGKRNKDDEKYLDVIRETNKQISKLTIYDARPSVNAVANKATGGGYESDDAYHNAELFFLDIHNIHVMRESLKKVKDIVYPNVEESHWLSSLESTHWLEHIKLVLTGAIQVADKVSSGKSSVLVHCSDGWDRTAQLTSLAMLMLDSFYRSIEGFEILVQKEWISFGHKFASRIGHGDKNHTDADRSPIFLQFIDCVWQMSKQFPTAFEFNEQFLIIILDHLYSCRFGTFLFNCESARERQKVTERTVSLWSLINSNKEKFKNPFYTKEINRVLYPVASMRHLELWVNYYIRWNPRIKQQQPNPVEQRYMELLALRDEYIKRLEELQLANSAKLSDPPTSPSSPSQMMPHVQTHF
# UniProt Q9BQG0: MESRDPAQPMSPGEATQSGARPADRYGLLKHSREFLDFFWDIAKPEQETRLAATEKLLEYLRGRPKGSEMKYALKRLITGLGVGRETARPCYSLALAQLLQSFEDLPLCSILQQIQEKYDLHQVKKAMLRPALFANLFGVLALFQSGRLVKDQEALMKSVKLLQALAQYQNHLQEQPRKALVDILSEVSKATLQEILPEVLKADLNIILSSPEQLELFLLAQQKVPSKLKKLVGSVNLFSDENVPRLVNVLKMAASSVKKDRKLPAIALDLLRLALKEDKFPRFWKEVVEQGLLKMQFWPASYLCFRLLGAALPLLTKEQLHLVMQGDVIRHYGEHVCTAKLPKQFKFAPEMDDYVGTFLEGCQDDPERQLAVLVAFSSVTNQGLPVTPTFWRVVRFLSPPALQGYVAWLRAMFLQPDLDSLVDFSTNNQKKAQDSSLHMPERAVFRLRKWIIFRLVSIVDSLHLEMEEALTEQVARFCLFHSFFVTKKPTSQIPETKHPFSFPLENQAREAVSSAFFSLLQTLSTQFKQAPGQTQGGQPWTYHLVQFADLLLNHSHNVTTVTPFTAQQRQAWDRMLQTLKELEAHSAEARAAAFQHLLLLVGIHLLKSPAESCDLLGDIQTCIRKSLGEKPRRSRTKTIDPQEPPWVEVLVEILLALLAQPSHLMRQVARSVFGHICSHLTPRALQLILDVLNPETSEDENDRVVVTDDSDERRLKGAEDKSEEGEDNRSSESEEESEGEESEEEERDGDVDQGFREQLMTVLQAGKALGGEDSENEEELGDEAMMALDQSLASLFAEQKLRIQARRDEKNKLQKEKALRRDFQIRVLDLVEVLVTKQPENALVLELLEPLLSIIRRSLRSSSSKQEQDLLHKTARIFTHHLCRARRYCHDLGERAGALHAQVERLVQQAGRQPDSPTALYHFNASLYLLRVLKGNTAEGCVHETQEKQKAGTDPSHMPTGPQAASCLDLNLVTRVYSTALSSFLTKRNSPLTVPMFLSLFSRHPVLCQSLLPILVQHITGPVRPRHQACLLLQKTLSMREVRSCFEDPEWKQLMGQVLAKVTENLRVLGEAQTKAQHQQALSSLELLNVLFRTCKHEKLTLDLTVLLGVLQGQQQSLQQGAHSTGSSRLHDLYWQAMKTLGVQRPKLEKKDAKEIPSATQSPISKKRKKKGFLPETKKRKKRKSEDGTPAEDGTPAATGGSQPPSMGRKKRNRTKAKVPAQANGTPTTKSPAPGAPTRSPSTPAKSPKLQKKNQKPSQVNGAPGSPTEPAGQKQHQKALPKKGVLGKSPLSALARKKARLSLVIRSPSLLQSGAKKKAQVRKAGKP
# UniProt O43795: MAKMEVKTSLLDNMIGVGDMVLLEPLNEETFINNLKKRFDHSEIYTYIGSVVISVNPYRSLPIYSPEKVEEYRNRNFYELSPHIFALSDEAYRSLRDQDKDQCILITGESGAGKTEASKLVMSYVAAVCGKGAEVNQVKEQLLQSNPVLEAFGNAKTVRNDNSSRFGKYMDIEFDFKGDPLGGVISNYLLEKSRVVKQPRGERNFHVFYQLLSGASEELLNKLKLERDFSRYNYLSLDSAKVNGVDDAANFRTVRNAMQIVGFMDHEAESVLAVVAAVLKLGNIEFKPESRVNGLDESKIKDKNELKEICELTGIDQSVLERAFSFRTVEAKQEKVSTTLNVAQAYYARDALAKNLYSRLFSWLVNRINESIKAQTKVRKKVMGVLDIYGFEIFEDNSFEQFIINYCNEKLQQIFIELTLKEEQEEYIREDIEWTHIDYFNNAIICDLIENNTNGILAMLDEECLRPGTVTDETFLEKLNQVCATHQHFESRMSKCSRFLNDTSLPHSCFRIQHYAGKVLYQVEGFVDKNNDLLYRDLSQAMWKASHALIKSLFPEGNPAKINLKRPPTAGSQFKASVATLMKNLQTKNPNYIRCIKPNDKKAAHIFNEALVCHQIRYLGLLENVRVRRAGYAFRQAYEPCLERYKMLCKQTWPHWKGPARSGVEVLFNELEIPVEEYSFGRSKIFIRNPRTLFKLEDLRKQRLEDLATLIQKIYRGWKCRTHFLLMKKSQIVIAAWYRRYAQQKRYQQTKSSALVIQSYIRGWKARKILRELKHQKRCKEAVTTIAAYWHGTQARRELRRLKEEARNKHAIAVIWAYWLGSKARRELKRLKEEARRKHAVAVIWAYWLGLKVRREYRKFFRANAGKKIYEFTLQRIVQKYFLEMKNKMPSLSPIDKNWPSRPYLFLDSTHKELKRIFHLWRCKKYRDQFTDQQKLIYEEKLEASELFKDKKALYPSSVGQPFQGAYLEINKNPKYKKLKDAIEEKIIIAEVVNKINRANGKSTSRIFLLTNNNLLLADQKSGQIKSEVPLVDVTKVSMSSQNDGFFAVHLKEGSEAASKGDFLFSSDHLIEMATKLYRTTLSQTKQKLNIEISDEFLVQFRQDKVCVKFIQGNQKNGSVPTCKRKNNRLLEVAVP
# UniProt Q6P1R3, 74-100: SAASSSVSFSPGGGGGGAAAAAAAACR
# Some of the results follow. The data scatter; read single values as rough.
# Compound: ClCC(=O)N[C@@H]1CCCc2ccccc12
# Assay: log2 mean competition ratio of IA-DTB cysteine labelling (DMSO/compound) (log2 ratio); higher = stronger cysteine engagement by compound
# Conditions: 50 µM; treatment time: 4 h; cell line lysate: HEK293T
# Procedure: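 IA-DTB competitive cysteine chemoproteomics in HEK293T RIPA lysate. Lysates were treated with compound 29 or 30 at 50 or 200 µM for 4 h, then IA-DTB (500 µM, 1 h), trypsin-digested, NeutrAvidin-enriched and analysed by diaPASEF. Competition ratio = intensity DMSO / intensity compound (n=4 treated, n=64 DMSO); binding: mean log2 CR ≥ 1 and p ≤ 0.05 plus QC filters. Target is the cysteine site.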
row,Target,log2 mean competition ratio
1,NARS1 C438,0.909
2,MTA2 C261 (UniProt O94776),0.411
3,MYO5A C535 (UniProt Q9Y4I1),-0.143
4,MTOR C1660 (UniProt P42345),-0.0202
5,NAB2 C499 (UniProt Q15742),0.381
6,MRPS2 C162 (UniProt Q9Y399),-0.024
7,MRPL28 C154 (UniProt Q13084),0.312
8,MTRF1 C335 (UniProt O75570),-0.142
9,MTM1 C113 (UniProt Q13496),-0.436
10,MYBBP1A C942 (UniProt Q9BQG0),0.0746
11,MYO1B C641 (UniProt O43795),-0.103
12,MYO9A C32 (UniProt B2RTY4),-0.39
13,MTIF2 C290 (UniProt P46199),-0.203
14,MZT2B;MZT2A C80;(C80),-0.0821
15,MRPS18A C118 (UniProt Q9NVS2),-0.235
16,MTHFD1L C814,-0.209
17,MRPL58 C150 (UniProt Q14197),-0.373
18,MYL6 C2,-0.19
19,MYSM1 C822 (UniProt Q5VVJ2),-0.279
20,MSANTD2 C99 (UniProt Q6P1R3),-0.00618

# Same assay, conditions: 200 µM; treatment time: 4 h; cell line lysate: HEK293T
row,Target,log2 mean competition ratio
1,NARS1 C438,0.336
2,MTA2 C261 (UniProt O94776),0.323
3,MYO5A C535 (UniProt Q9Y4I1),-0.262
4,MTOR C1660 (UniProt P42345),-0.0744
5,NAB2 C499 (UniProt Q15742),-0.0693
6,MRPS2 C162 (UniProt Q9Y399),-0.152
7,MRPL28 C154 (UniProt Q13084),1.96
8,MTRF1 C335 (UniProt O75570),0.0854
9,MTM1 C113 (UniProt Q13496),0.24
10,MYBBP1A C942 (UniProt Q9BQG0),-0.185
11,MYO1B C641 (UniProt O43795),0.367
12,MYO9A C32 (UniProt B2RTY4),-0.264
13,MTIF2 C290 (UniProt P46199),0.274
14,MZT2B;MZT2A C80;(C80),0.165
15,MRPS18A C118 (UniProt Q9NVS2),0.0817
16,MTHFD1L C814,-0.0544
17,MRPL58 C150 (UniProt Q14197),-0.309
18,MYL6 C2,-0.181
19,MYSM1 C822 (UniProt Q5VVJ2),-0.0638
20,MSANTD2 C99 (UniProt Q6P1R3),-0.135
